Laboratory results as given in PubChem BioAssay AID2551 (National Center for Advancing Translational Sciences (NCATS), 2010).
Hit rate of the full screen: of about 310,000 compounds, about 17,000 (5.5%) were called active. The shares of active, inactive and inconclusive entries below differ from those in the screen. Calls come from the whole dose curve; as a rule, active = well fitted inhibition curve with a large enough effect; inconclusive = small, poorly fitted or top-dose-only effect, or effect the other way; inactive = no such curve, though single readings can be large or run the other way. Potencies beside an inconclusive call are fits to weak or partial responses and may not hold up.

Chains of the proteins cited; added tags and fusions are not shown. Lines headed by an entry give the natural chain unless they say otherwise; changes in a name come on top.
UniProt P51450: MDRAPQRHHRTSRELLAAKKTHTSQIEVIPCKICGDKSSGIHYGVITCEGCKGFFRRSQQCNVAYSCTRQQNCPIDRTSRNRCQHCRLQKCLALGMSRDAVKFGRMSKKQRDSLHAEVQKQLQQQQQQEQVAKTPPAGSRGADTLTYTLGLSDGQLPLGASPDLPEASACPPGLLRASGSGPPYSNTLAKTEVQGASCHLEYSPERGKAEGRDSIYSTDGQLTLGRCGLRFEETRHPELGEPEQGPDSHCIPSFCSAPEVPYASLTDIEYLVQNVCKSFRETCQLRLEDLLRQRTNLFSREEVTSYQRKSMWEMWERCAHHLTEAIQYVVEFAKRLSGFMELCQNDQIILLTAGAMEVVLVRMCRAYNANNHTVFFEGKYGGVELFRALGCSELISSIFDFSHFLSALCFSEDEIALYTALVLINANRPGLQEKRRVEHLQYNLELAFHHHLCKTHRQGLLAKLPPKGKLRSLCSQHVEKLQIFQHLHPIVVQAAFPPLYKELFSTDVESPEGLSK

These molecules were tested against Nuclear receptor ROR-gamma (Mus musculus) (UniProt P51450) (assay: qHTS for inhibitors of ROR gamma transcriptional activity). Conditions: Drosophila S2 Gal4-RORgamma UAS-luciferase reporter, 20 h; series mostly up to 53.6 µM.
Summary of the method: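 Stably transfected Drosophila Schneider cells are the test system, with ROR gamma fused to Gal4 and luciferase under UAS control; luminescence is read after 20 hr of 700 uM copper sulfate induction at ambient temperature.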
Note: nearly all actives have a fitted effect of over 60% in size.
Potency is the fitted concentration of half-maximal effect.

Potency, inactive:
O=C(Nc1ccccc1OC(=O)c1ccc(Cl)cc1)c1ccc(Cl)cc1
O=C(NCCC1=CCCCC1)c1ccc2c(c1)N(Cc1ccccc1)C(=O)CS2
Cc1cc(C)c2c(N=NN3CCCCC3)[nH]nc2n1
CC(C)CCN1CCNC(=O)C1CC(=O)Nc1ccc(F)cc1 (centres undefined)
N/C(=N\c1nc2ccccc2o1)NC(=O)/C=C/c1ccccc1
COc1ccc(-n2c(=S)[nH]c3cc(C(=O)Nc4cc(OC)c(OC)c(OC)c4)ccc3c2=O)c(OC)c1
Cc1cc(C)c(C)c(S(=O)(=O)NCCN2CCOCC2)c1C
COC(=O)C1=C(C)N(c2ccc(C(=O)OC)cc2)C(=O)C1
Cc1[nH]c2ccc(F)cc2c1CCN(Cc1cccnc1)C(=S)Nc1cccc(F)c1
N#C/C(=C\c1ccc(O)c(Br)c1)C(=O)NCc1ccccc1
COCCCN1CN(Cc2ccco2)CNC1=S
CCCCn1c(=O)n(CC(=O)Nc2ccc(OC)c(Cl)c2)c(=O)c2c1nc(CO)n2CCC

Potency, active:
Cc1csc(NC(=O)c2ccc3ccccc3n2)n1 2.51 µM
Cc1nn2c(=O)cc(CSc3nc4ccccc4[nH]3)nc2s1 3.98 µM
COc1ccc(CCN(Cc2nc3ccccc3c(=O)[nH]2)C(=O)C2CC2)cc1 3.16 µM
COc1ccccc1N1CN(Cc2ccccc2)CNC1=S 2 µM
COc1cc(/C=C2/C(=O)ON=C2C)ccc1OCc1ccccc1F 10 µM
Cc1cc(C)nc(Sc2ncnc(N)c2[N+](=O)[O-])n1 6.31 µM
O=c1c2ccccc2nnn1CSc1nc2ccccc2c(=O)n1CCCO 10 µM
CCCN(Cc1ccccc1)C(=S)Nc1ccc(C(C)=O)cc1 4.47 µM
Cc1c(Cl)cccc1NC(CC(=O)c1ccccc1)C(=O)OCC(=O)c1cccs1 (centres undefined) 11.2 µM
Cc1ccc(-c2nc3cnccn3c2Nc2c(C)cccc2C)o1 11.2 µM
CCN(CC(=O)NCCc1ccc(Cl)cc1)Cc1nc2ccccc2c(=O)[nH]1 2.24 µM
C#CC(=O)N(c1cccc(OC)c1)C(C(=O)NC1CCCC1)c1cccs1 (centres undefined) 1.58 µM
N/C(=N\c1nc2ccccc2o1)NC(=O)c1ccc(Cl)cc1 10 µM
CC(C)C(=O)Nc1cccc(NC(=S)NC(=O)c2ccc([N+](=O)[O-])cc2)c1 11.2 µM

Potency, inconclusive:
CCn1c2ccccc2c2nnc(SCc3ccc(C(=O)OC)o3)nc21 17.8 µM [inhibitor, single point]
CC1Cc2ccccc2N1C(=O)Cn1nc(C(=O)O)c2ccccc2c1=O (centres undefined) 25.1 µM [activator, single point]
COc1ccc(CC(=O)n2nc(-c3ccc(Cl)cc3)nc2NCc2ccco2)cc1 12.6 µM [activator, partial curve]
O=S(=O)(c1ccccc1C(F)(F)F)N1CCC(n2cnc3ccccc32)CC1 12.6 µM [activator, partial curve]
CCCn1c(C(C)Nc2nc(C)cs2)nc2cc(Cl)c(Cl)cc21 (centres undefined) 15.8 µM [inhibitor, single point]
CCN(CCCNC(=O)CN(C)S(=O)(=O)c1ccc2c(c1)CCC(=O)N2)c1cccc(C)c1 11.2 µM [activator, partial curve]
O=C(CSc1nc(-c2ccco2)cc(C(F)(F)F)n1)NCc1cccs1 10 µM [inhibitor, partial curve]
CC(C)C(c1nnnn1Cc1ccco1)N1CCN(c2nc3ccccc3s2)CC1 (centres undefined) 0.501 µM [inhibitor, single point]
O=C(O)CCCCCNS(=O)(=O)c1c(Cl)cccc1Cl 11.2 µM [activator, partial curve]
COc1ccccc1Oc1ccc(N/C=C/C(=O)c2ccc(C)o2)cc1 15.8 µM [inhibitor, single point]
Clc1cccc(CNCCCSc2ncccn2)c1Cl 31.6 µM [inhibitor, single point]
CCOC(=O)c1cnc2c(-c3ccc(F)cc3)cnn2c1C(F)(F)F 35.5 µM [inhibitor, single point]
Cc1ccn2cc(CCNS(=O)(=O)c3ccc(F)c(C(F)(F)F)c3)nc2c1 7.94 µM [inhibitor, full curve, poor fit]
Cc1cccc(OCCSc2nc(N)cc(N)n2)c1 3.98 µM [activator, partial curve]
Cc1ccc(OCc2cc(C(=O)NCC3COCCO3)no2)cc1C (centres undefined) 5.62 µM [activator, partial curve]
CCc1cccc2c(C(=O)CCl)c[nH]c12 25.1 µM [inhibitor, single point]
CC(C)COC(=O)NCCCOC(=O)Nc1ccccc1 22.4 µM [activator, single point]
Cc1ccc(-n2ncc3c2CCCC3NC(=O)CCc2c(C)noc2C)cc1C (centres undefined) 11.2 µM [activator, partial curve, poor fit]
CCC(C)(C)NC(=O)C(c1ccc(OC)cc1)N(Cc1ccco1)C(=O)CCC(=O)Nc1cc(C)on1 (centres undefined) 5.01 µM [activator, full curve]
CC1CCc2c(sc3nc(CN4CCOCC4)nc(NS(=O)(=O)c4cccc([N+](=O)[O-])c4)c23)C1 (centres undefined) 6.31 µM [activator, single point]
CCN1CCN(C(=S)Nc2sc(C)c(-c3ccccc3)c2C(=O)OC)CC1 12.6 µM [inhibitor, single point]
Fc1cccc(Oc2nc3ccccc3n3cccc23)c1 12.6 µM [activator, single point]
Fc1ccccc1OCCSc1nc2ccccc2o1 1 µM [activator, full curve, poor fit]

3 entries out of the list, arranged by molecular weight, low to high:
Potency, inconclusive:
Cc1cccc(OCCSc2nc(N)cc(N)n2)c1 3.98 µM [activator, partial curve]
Fc1cccc(Oc2nc3ccccc3n3cccc23)c1 12.6 µM [activator, single point]
Cc1ccc(OCc2cc(C(=O)NCC3COCCO3)no2)cc1C (centres undefined) 5.62 µM [activator, partial curve]
